# Experimental data as given in the supplement of paper PMC8728848.
# The other results are listed elsewhere or left out.
# B1: CM2 (Cordyceps militaris) (protein)
# chain: MEIAEQNVGKSCAIVNLIPPKEGSNIWTAKQVTIARNLPPNRGTGRHQIDWSFGPVKVTGYVDTTNWEIGVTVSIMGIDLGTVYGNLRDGVVLNVDLFLAKGQVRFYLKNGNEVWVHLSVEIRFDGKFEGDYKIITV
# Legend:
# Test in all cases: glycan array binding signal (z-score within array); higher = stronger binding
# Details in all cases: glycan notation: IUPAC condensed, linker removed
# [1] = molecular target: Fuc(a1-2)Gal(b1-4)GlcNAc(b1-3)Gal(b1-4)GlcNAc(b1-3)Gal(b1-4)GlcNAc
# Summary of the method: (§1)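 The binding signal is a Z-score computed within each array and averaged over linkers. Arrays of the same protein sequence at different concentrations or buffers were also averaged together. Data originate from 3228 arrays in the Consortium for Functional Glycomics database, kept only where the protein sequence was available.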
# [2] = molecular target: Fuc(a1-2)Gal(b1-4)GlcNAc(b1-3)GalNAc
# Summary of the method: as §1
# [3] = molecular target: Fuc(a1-2)Gal(b1-4)GlcNAc(b1-3)[Fuc(a1-2)Gal(b1-4)GlcNAc(b1-6)]GalNAc
# Summary of the method: as §1
# [4] = molecular target: Fuc(a1-2)Gal(b1-4)GlcNAc(b1-3)[Fuc(a1-3)[Gal(b1-4)]GlcNAc(b1-6)]Gal(b1-4)Glc
# Summary of the method: as §1
# [5] = molecular target: Fuc(a1-2)Gal(b1-4)GlcNAc(b1-6)GalNAc
# Summary of the method: as §1
# [6] = molecular target: Fuc(a1-2)Gal(b1-4)GlcNAc6S
# Summary of the method: as §1
# [7] = molecular target: Fuc(a1-2)Gal(b1-4)[Fuc(a1-3)]GlcNAc
# Summary of the method: as §1
# [8] = molecular target: Fuc(a1-2)Gal(b1-4)[Fuc(a1-3)]GlcNAc(b1-2)Man(a1-3)[Fuc(a1-2)Gal(b1-4)[Fuc(a1-3)]GlcNAc(b1-2)Man(a1-6)]Man(b1-4)GlcNAc(b1-4)[Fuc(a1-6)]GlcNAc
# Summary of the method: as §1
# [9] = molecular target: Fuc(a1-2)Gal(b1-4)[Fuc(a1-3)]GlcNAc(b1-2)[Fuc(a1-2)Gal(b1-4)[Fuc(a1-3)]GlcNAc(b1-4)]Man(a1-3)[Fuc(a1-2)Gal(b1-4)[Fuc(a1-3)]GlcNAc(b1-2)Man(a1-6)]Man(b1-4)GlcNAc(b1-4)GlcNAc
# Summary of the method: as §1
# [10] = molecular target: Fuc(a1-2)Gal(b1-4)[Fuc(a1-3)]GlcNAc(b1-3)Gal(b1-4)[Fuc(a1-3)]GlcNAc
# Summary of the method: as §1
# [11] = molecular target: Fuc(a1-2)Gal(b1-4)[Fuc(a1-3)]GlcNAc(b1-3)Gal(b1-4)[Fuc(a1-3)]GlcNAc(b1-3)Gal(b1-4)[Fuc(a1-3)]GlcNAc
# Summary of the method: as §1
# [12] = molecular target: Fuc(a1-2)Gal(b1-4)[Fuc(a1-3)]GlcNAc(b1-3)GalNAc
# Summary of the method: as §1
# [13] = molecular target: Fuc(a1-2)Gal(b1-4)[Fuc(a1-3)]GlcNAc(b1-3)[Neu5Ac(a2-6)Gal(b1-4)GlcNAc(b1-6)]Gal(b1-4)Glc
# Summary of the method: as §1
# [14] = molecular target: Fuc(a1-2)Gal3S(b1-4)GlcNAc
# Summary of the method: as §1
# [15] = molecular target: Fuc(a1-2)Gal6S(b1-3)GlcNAc
# Summary of the method: as §1
# [16] = molecular target: Fuc(a1-2)Gal6S(b1-3)GlcNAc6S
# Summary of the method: as §1
# Fuc(a1-2)Gal6S(b1-4)Glc = molecular target: Fuc(a1-2)Gal6S(b1-4)Glc
# Summary of the method: as §1
# [17] = molecular target: Fuc(a1-2)Gal6S(b1-4)Glc6S
# Summary of the method: as §1
# Fuc(a1-2)[Gal(a1-3)]Gal = molecular target: Fuc(a1-2)[Gal(a1-3)]Gal
# Summary of the method: as §1
# [18] = molecular target: Fuc(a1-2)[Gal(a1-3)]Gal(b1-3)GalNAc
# Summary of the method: as §1
# [19] = molecular target: Fuc(a1-2)[Gal(a1-3)]Gal(b1-3)GalNAc(b1-3)Gal(a1-4)Gal(b1-4)Glc
# Summary of the method: as §1
# [20] = molecular target: Fuc(a1-2)[Gal(a1-3)]Gal(b1-3)GlcNAc
# Summary of the method: as §1
# [21] = molecular target: Fuc(a1-2)[Gal(a1-3)]Gal(b1-3)GlcNAc(b1-2)Man(a1-3)[Fuc(a1-2)[Gal(a1-3)]Gal(b1-3)GlcNAc(b1-2)Man(a1-6)]Man(b1-4)GlcNAc(b1-4)GlcNAc
# Summary of the method: as §1
# [22] = molecular target: Fuc(a1-2)[Gal(a1-3)]Gal(b1-3)GlcNAc(b1-2)Man(a1-3)[Fuc(a1-2)[Gal(a1-3)]Gal(b1-3)GlcNAc(b1-2)Man(a1-6)]Man(b1-4)GlcNAc(b1-4)[Fuc(a1-6)]GlcNAc
# Summary of the method: as §1
# [23] = molecular target: Fuc(a1-2)[Gal(a1-3)]Gal(b1-3)GlcNAc(b1-3)GalNAc
# Summary of the method: as §1
# [24] = molecular target: Fuc(a1-2)[Gal(a1-3)]Gal(b1-3)GlcNAc(b1-6)GalNAc
# Summary of the method: as §1
# [25] = molecular target: Fuc(a1-2)[Gal(a1-3)]Gal(b1-4)Glc
# Summary of the method: as §1
# [26] = molecular target: Fuc(a1-2)[Gal(a1-3)]Gal(b1-4)GlcNAc
# Summary of the method: as §1
# [27] = molecular target: Fuc(a1-2)[Gal(a1-3)]Gal(b1-4)GlcNAc(b1-2)Man
# Summary of the method: as §1
# [28] = molecular target: Fuc(a1-2)[Gal(a1-3)]Gal(b1-4)GlcNAc(b1-2)Man(a1-3)[Fuc(a1-2)[Gal(a1-3)]Gal(b1-4)GlcNAc(b1-2)Man(a1-6)]Man(b1-4)GlcNAc(b1-4)GlcNAc
# Summary of the method: as §1
binder,measurement,setting,value
B1,glycan array binding signal (z-score),[1],0.53
same,glycan array binding signal (z-score),[2],0.038
same,glycan array binding signal (z-score),[3],-0.153
same,glycan array binding signal (z-score),[4],1.78
same,glycan array binding signal (z-score),[5],-0.483
same,glycan array binding signal (z-score),[6],0.223
same,glycan array binding signal (z-score),[7],0.733
same,glycan array binding signal (z-score),[8],0.44
same,glycan array binding signal (z-score),[9],0.693
same,glycan array binding signal (z-score),[10],0.593
same,glycan array binding signal (z-score),[11],-1.09
same,glycan array binding signal (z-score),[12],0.529
same,glycan array binding signal (z-score),[13],-1.48
same,glycan array binding signal (z-score),[14],1.07
same,glycan array binding signal (z-score),[15],-0.43
same,glycan array binding signal (z-score),[16],0.054
same,glycan array binding signal (z-score),Fuc(a1-2)Gal6S(b1-4)Glc,-1.36
same,glycan array binding signal (z-score),[17],-1.38
same,glycan array binding signal (z-score),Fuc(a1-2)[Gal(a1-3)]Gal,-0.913
same,glycan array binding signal (z-score),[18],1.24
same,glycan array binding signal (z-score),[19],-1.06
same,glycan array binding signal (z-score),[20],-0.609
same,glycan array binding signal (z-score),[21],0.361
same,glycan array binding signal (z-score),[22],-0.258
same,glycan array binding signal (z-score),[23],0.053
same,glycan array binding signal (z-score),[24],-0.605
same,glycan array binding signal (z-score),[25],0.763
same,glycan array binding signal (z-score),[26],-0.435
same,glycan array binding signal (z-score),[27],0.86
same,glycan array binding signal (z-score),[28],-0.098

# Some of the entries so far, as tab-separated lines:
binder	measurement	setting	value
B1	glycan array binding signal (z-score)	[1]	0.53
same	glycan array binding signal (z-score)	[14]	1.07
